Results deposited as PubChem BioAssay AID1259308 (NCATS, 2017)

Aim: 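Genes whose loss raises luciferase production in HEK293 cells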 (primary screen)
Cells: human HEK293 embryonic kidney cells stably expressing firefly luciferase (HEK-CMV-Luc2-Hygro)
Reagents: single siRNA against human genes, 0.8 pmol siRNA per well
Timing: 72 h
Measured: 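Luciferase light (ONE-Glo) measured on one replicate plate set and viability (CellTiter-Glo) on the other, scaled to a negative control siRNA, with robust z-scores and luciferase per cell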
Scale: total luciferase, z-score and total luciferase, % of control: higher = more reporter protein produced; luciferase per cell, z-score: higher = more reporter output per viable cell
Hit rule: 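Active when the median/MAD z-score for overall luciferase is greater than 3; a gene was taken forward for validation with new siRNAs if at least two of its three siRNAs passed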
Meaning of the calls: active = raised luciferase; inactive = no rise
The deposit covers about 59,000 reagents; below is a part drawn at random. About 1,510 of them (2.6%) were called active. 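Calls use total luciferase alone and ignore viability, so some active siRNAs may act by altering cell number.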 Not all columns of the deposit are shown.

Gene | PubChem SID | total luciferase, z-score | total luciferase, % of control | luciferase per cell, z-score | Call
VEZF1 | SID160719213 | -1.88 | 44.5 | -2.17 | inactive
VEZF1 | SID160719214 | -0.203 | 77.9 | -0.714 | inactive
VEZF1 | SID160719215 | 1.49 | 111 | 0.444 | inactive
SH3PXD2A | SID160722693 | 0.384 | 89.5 | 0.00285 | inactive
SH3PXD2A | SID160722694 | -0.542 | 71.1 | 0.236 | inactive
SH3PXD2A | SID160735239 | 0.537 | 92.6 | 0.405 | inactive
CA10 | SID160745333 | 0.267 | 87.2 | 0.447 | inactive
CA10 | SID160745334 | -0.438 | 73.2 | -0.734 | inactive
CA10 | SID160745335 | 2.66 | 135 | 1.59 | inactive
SLC27A3 | SID160729710 | 0.0863 | 83.6 | 1.74 | inactive
SLC27A3 | SID160729711 | 0.263 | 87.1 | 1.58 | inactive
SLC27A3 | SID160729712 | -0.198 | 77.9 | -0.783 | inactive
TARS1 | SID160717712 | -0.672 | 68.5 | -1.37 | inactive
TARS1 | SID160717713 | 0.125 | 84.4 | -0.427 | inactive
TARS1 | SID160717714 | -0.543 | 71.1 | -0.518 | inactive
ADRA2A | SID160714957 | -0.965 | 62.7 | -0.781 | inactive
ADRA2A | SID160714968 | 0.437 | 90.6 | -0.0564 | inactive
ADRA2A | SID160714979 | -1.8 | 46.1 | -1.53 | inactive
NTN5 | SID160724778 | 0.165 | 85.2 | -0.188 | inactive
NTN5 | SID160756414 | -0.133 | 79.2 | -0.661 | inactive
NTN5 | SID160756415 | 2.45 | 131 | 1.46 | inactive
CEBPA | SID160741582 | -0.633 | 69.3 | -0.717 | inactive
CEBPA | SID160741593 | 0.38 | 89.5 | 1.13 | inactive
CEBPA | SID160741605 | 3.98 | 161 | 2.66 | active
PROX2 | SID160762965 | -0.263 | 76.7 | 0.633 | inactive
PROX2 | SID160762966 | -0.78 | 66.4 | 0.241 | inactive
PROX2 | SID160762967 | 2.18 | 125 | 1.68 | inactive
STPG2 | SID160763646 | -0.519 | 71.6 | -0.254 | inactive
STPG2 | SID160763647 | 0.651 | 94.8 | 0.761 | inactive
STPG2 | SID160763648 | 0.0731 | 83.3 | -0.59 | inactive
DCAF8L1 | SID160757704 | 0.156 | 85 | 0.101 | inactive
DCAF8L1 | SID160757705 | 0.396 | 89.8 | 0.423 | inactive
DCAF8L1 | SID160757706 | 0.294 | 87.7 | 0.0497 | inactive
SLC17A9 | SID160747260 | -1.42 | 53.6 | -1.17 | inactive
SLC17A9 | SID160747261 | 0.828 | 98.4 | 0.209 | inactive
SLC17A9 | SID160747262 | 1.18 | 105 | 0.734 | inactive
PDCD5 | SID160721576 | -1.25 | 57 | -0.973 | inactive
PDCD5 | SID160721577 | -0.0794 | 80.3 | 0.108 | inactive
PDCD5 | SID160721578 | -0.273 | 76.5 | -0.0537 | inactive
SORD | SID160717180 | 1.3 | 108 | 0.332 | inactive
SORD | SID160717182 | -0.567 | 70.6 | -0.48 | inactive
SORD | SID160731775 | -0.853 | 64.9 | -1.54 | inactive
SRI | SID160717324 | 0.425 | 90.3 | 0.635 | inactive
SRI | SID160717325 | 1.75 | 117 | 1.56 | inactive
SRI | SID160717326 | 1.59 | 114 | 0.928 | inactive
PHACTR2 | SID160722984 | 0.157 | 85 | 0.943 | inactive
PHACTR2 | SID160722985 | -0.8 | 66 | -0.587 | inactive
PHACTR2 | SID160722986 | 0.0792 | 83.5 | -0.31 | inactive
VHL | SID160718751 | -0.609 | 69.8 | -0.049 | inactive
VHL | SID160718753 | -0.219 | 77.5 | 1.04 | inactive
VHL | SID160718754 | 0.162 | 85.1 | 0.321 | inactive
ALPL | SID160716840 | -0.13 | 79.3 | 0.279 | inactive
ALPL | SID160716851 | -0.461 | 72.7 | 0.0555 | inactive
ALPL | SID160716862 | 0.701 | 95.8 | 0.318 | inactive
RSPH3 | SID160751449 | 0.147 | 84.8 | 0.368 | inactive
RSPH3 | SID160751450 | 0.631 | 94.4 | -0.188 | inactive
RSPH3 | SID160751452 | 0.206 | 86 | 0.0487 | inactive

Called active (from the list above):
Gene | PubChem SID | total luciferase, z-score | total luciferase, % of control | luciferase per cell, z-score | Call
CEBPA | SID160741605 | 3.98 | 161 | 2.66 | active
